Earlier results, collected in patent US20080003684A1, “DIAGNOSTIC METHOD FOR MYOPATHY” (priority 2006, published 2008).

Tested on: plasma ubiquinone
Conditions: clinically acceptable doses; cited from earlier work

CC(C)c1c(C(=O)Nc2ccccc2)c(-c2ccccc2)c(-c2ccc(F)cc2)n1CC[C@@H](O)C[C@@H](O)CC(=O)O [atorvastatin]
levels of plasma ubiquinone: lowered levels of plasma ubiquinone
